Results are given in words; binding and its absence hold for the method and conditions named. Some binding calls cover weakened binding; strength is not graded here.
Tests used:
[1] = molecular target: ERK-2 (extracellular signal-regulated kinase 2) (UniProt P28482); assay: BLI, biotinylated ERK-2 on streptavidin sensors, 200 nM eNOS analyte
[2] = molecular target: ERK-2 (extracellular signal-regulated kinase 2) (UniProt P28482); assay: optical biosensing (BLI), summary statement
[3] = molecular target: ERK-2 (extracellular signal-regulated kinase 2) (UniProt P28482); assay: BLI, immobilised ERK-2, eNOS analyte
[4] = molecular target: ERK-2 (extracellular signal-regulated kinase 2) (UniProt P28482); assay: BLI

Chains of the proteins cited; added tags and fusions are not shown.
UniProt P28482: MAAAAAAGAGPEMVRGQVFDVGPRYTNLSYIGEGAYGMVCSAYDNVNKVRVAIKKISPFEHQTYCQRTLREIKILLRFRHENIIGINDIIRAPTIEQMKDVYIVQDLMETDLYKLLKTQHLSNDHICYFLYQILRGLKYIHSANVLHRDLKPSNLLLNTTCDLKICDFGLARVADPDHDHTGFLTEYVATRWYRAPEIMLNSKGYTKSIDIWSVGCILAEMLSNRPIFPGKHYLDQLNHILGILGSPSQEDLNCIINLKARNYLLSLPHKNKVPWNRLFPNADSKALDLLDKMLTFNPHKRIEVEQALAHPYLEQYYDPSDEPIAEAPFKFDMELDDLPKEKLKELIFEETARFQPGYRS
UniProt P29473: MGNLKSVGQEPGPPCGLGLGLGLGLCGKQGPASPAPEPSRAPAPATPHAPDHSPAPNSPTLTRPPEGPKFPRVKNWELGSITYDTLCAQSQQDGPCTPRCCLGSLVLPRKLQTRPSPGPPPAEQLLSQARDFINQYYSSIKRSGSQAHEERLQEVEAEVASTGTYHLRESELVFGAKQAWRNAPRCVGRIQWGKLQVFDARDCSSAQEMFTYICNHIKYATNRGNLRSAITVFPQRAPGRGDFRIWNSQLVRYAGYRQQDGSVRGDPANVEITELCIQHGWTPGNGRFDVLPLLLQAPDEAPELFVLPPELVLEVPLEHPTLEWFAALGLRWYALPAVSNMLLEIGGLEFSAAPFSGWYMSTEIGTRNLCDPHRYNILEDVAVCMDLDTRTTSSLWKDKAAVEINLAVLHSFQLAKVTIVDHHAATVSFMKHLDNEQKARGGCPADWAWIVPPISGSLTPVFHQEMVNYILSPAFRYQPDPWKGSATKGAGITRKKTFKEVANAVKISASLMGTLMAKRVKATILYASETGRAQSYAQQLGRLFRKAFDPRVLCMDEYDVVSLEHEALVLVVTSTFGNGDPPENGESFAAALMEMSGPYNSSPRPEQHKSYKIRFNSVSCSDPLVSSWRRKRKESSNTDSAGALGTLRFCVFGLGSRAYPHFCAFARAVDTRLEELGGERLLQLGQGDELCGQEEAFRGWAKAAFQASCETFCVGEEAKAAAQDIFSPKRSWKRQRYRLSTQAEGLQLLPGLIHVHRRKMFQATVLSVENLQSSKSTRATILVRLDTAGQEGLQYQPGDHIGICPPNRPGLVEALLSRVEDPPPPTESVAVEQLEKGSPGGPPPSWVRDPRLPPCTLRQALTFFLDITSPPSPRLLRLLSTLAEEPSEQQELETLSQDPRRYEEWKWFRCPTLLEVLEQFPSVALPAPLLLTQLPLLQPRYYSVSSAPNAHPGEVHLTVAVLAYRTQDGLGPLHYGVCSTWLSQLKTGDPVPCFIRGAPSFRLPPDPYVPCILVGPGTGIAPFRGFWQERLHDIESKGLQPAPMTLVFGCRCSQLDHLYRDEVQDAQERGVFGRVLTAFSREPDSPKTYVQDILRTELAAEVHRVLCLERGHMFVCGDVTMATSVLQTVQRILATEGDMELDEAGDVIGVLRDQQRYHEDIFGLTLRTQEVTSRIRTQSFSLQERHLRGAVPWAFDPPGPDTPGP

Measured: binding

endothelial nitric oxide synthase (eNOS), purified, unphosphorylated (from UniProt P29473 1-1205) (enzyme)
binds: all assays above

Reference: patent US20150232576A1
